Measurements: paper PMC8854406
No constants are given. Whether binding was seen depends on the method and setting. In cells and extracts the contact can be indirect. Where a sequence is shown, tags or fusion partners need not be part of it.

Molecular target: T1, Myc-KIRREL1-HA (full-length KIRREL1) (UniProt Q96J84)
T1 sequence: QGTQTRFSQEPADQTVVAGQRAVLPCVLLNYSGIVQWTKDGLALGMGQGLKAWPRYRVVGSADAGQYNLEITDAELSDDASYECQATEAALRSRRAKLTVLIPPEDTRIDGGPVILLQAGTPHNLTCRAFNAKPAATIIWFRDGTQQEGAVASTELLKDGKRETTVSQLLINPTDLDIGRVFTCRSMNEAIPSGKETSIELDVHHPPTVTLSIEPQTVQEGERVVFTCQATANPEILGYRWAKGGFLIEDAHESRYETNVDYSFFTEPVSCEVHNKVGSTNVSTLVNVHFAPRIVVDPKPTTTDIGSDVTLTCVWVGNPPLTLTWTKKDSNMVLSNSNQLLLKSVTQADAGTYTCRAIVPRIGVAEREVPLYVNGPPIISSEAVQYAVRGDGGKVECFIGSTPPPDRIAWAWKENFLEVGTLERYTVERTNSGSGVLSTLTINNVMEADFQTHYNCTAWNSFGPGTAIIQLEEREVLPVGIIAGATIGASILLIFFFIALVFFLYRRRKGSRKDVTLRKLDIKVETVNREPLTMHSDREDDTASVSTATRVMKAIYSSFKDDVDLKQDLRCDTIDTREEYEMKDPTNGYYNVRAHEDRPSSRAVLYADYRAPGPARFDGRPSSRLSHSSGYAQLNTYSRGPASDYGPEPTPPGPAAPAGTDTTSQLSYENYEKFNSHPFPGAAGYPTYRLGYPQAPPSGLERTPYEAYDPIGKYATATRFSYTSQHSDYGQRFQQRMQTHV
Assay: co-IP; HEK293T cells co-transfected; NP40 lysis buffer; cleared lysates incubated with anti-Flag tag or anti-Myc tag magnetic beads overnight at 4 °C; beads washed four times; immunoblot

Substance: Flag-tagged MOB1
- binding: no binding
